# Data published in the supplement of paper PMC5949888.
# Most values lie at the floor of the assay. Slopes are relative: functional sequences can read slightly below zero.
# System: Saccharomyces cerevisiae PS128 hsf1 delta, HSF1(1-493) fusion
# Assay: growth estimate (transactivation domain function in HSF1 fusion, heat-shock survival) (a.u. (slope of normalised read count over time)); higher = stronger growth at 37°C, i.e. more transactivation activity
# Details: library: random library
row,Substance,growth estimate
1,AVSYSRSWDCSERIR,< -0.25
2,PTCFHTSTGISTGIDYGNCS,< -0.25
3,YEPLVIR,< -0.25
4,GAGTMRLQRCLGTFVKGLSR,< -0.25
5,PGTNPSRQWGVMDFCNDTSY,< -0.25
6,SCPS,< -0.25
7,VYCAVCLRTPYGAPVPCVFW,< -0.25
8,QITEGSWPTSRCICFALVTR,< -0.25
9,IHGW,< -0.25
10,DAYA,-0.248
11,LHMDVTPRRLNGIWAEKWAR,< -0.25
12,SGGPASGTTVNARHAMDGLC,< -0.25
13,AANNLWGGSRSLSRYGHPIA,< -0.25
14,ALLS,< -0.25
15,SLCPISSRGKIMGGPLLHVL,< -0.25
16,LGPRLVATRWIVPCAAES,< -0.25
17,DRGEWGAYGGT,< -0.25
18,SNLLTRNHTPHRDTASVSSN,< -0.25
19,YKRFRP,< -0.25
20,NRRKRWSGLHWLLLRALRKF,< -0.25
21,TRVPERGLLLWELFICPNHK,< -0.25
22,FRVDRELLRRC,< -0.25
23,WEQSGDGMPGPTFILSNGSL,< -0.25

row,Substance,growth estimate
1,RVTHGSRQTGSFVSMSYLVG,< -0.25
2,VKAIVLFRGERELPDTCGTG,< -0.25
3,VGAVN,< -0.25
4,KRTRVLTDGEP,< -0.25
5,AIARDRSSLRALLVNEEPRP,< -0.25
6,LIRRRQSSVRNGSIRASSPI,< -0.25
7,ARTCQGVITAGAVSRSKDGP,-0.243
8,QVPGAVPTRAVPDILGTMR,< -0.25
9,SIRGRQCSESPYHVFVMLSQ,< -0.25
10,GWMPLIAGVKSPTANSVILT,< -0.25
11,LSGKYYRKLC,< -0.25
12,EIYTAQNVSLCALRHRMCEP,< -0.25
13,RRFHATSFSVCPGPSDTHVS,< -0.25
14,STISMSGRVEGRKAWYATRV,< -0.25
15,NPYR,< -0.25
16,HGPGGF,< -0.25
17,SKISDTERSNAPSIRRLT,< -0.25
18,GGPSYESNRSPLRALGKSSA,< -0.25
19,VSVAVRVPLRCTNGTASEKR,< -0.25
20,GFD,< -0.25
21,RTRVGLLIG,< -0.25
22,YLPPDPAQDVTGKSMSHRRG,< -0.25
23,VGSVFRAQWRLERPSACRGG,< -0.25

# Part of the list above, as tab-separated lines:
row	Substance	growth estimate
1	RVTHGSRQTGSFVSMSYLVG	< -0.25
2	VKAIVLFRGERELPDTCGTG	< -0.25
3	VGAVN	< -0.25
4	KRTRVLTDGEP	< -0.25
5	AIARDRSSLRALLVNEEPRP	< -0.25
6	LIRRRQSSVRNGSIRASSPI	< -0.25

# More results follow:

row,Substance,growth estimate
1,REVLNHKQLLPMNLAPGGSN,< -0.25
2,GLGGCPECCCGDTTICCLRL,-0.15
3,CTESGPQAALRSCQRVVHR,< -0.25
4,MWIGGYPDLKQPEGGGWNKN,< -0.25
5,QTIAQTL,< -0.25
6,EIAVFSMSYLLRLTGYFRGY,< -0.25
7,RPGGPDAGHRILILDC,< -0.25
8,TGTPGGFG,< -0.25
9,RPAILWT,< -0.25
10,LGESFLGALQLTC,< -0.25
11,TAMVSQLVG,< -0.25
12,SLGLGTFVLYVSEGPRFQSQ,< -0.25
13,VLRLGETLSNANWSGSHRTC,< -0.25
14,GEGLNLMTTGKVRYGSNHVV,< -0.25
15,ILMGALSPAAMVNVGGEWRS,< -0.25
16,DPTALRPRWT,< -0.25
17,NLV,< -0.25
18,PSGVA,< -0.25
19,VYGPTRGRPRGSWPNLYTAV,< -0.25
20,FSAGISQRQDLDTQCYHVYP,< -0.25
21,CVLSGTCEFYFRSV,-0.231
22,SHRHYLGFT,< -0.25
23,MSGATAVDTVRERCSRIRKH,< -0.25

row,Substance,growth estimate
1,KREAPPAPEWSRE,< -0.25
2,HIYHSGSIRRIPKEISRRSD,< -0.25
3,HPPIQGGPGPIDGARGGSST,< -0.25
4,LAKKVLPTEMQASTGRGCSK,< -0.25
5,PLYHAGELGKARGWCPKRHG,< -0.25
6,HGSWESERVQLSSTLRPSQG,< -0.25
7,RELLFLPTSCFMLH,< -0.25
8,EAYHLRPRRKYFAGLTSGAG,< -0.25
9,IGDGKRFCIQDT,< -0.25
10,FDPGCCSNRGARGHRVHEEG,< -0.25
11,CQISRM,-0.246
12,LPFNLSLCSGQQGGAELHAM,< -0.25
13,SRQVQRREPPLASDQTIAGY,< -0.25
14,FPPFIP,< -0.25
15,PTRLERR,< -0.25
16,SPAQRVMYHSLNLRATRELG,< -0.25
17,GRMR,-0.172
18,VPLDAPLVRR,< -0.25
19,CGEQTEG,< -0.25
20,SVRHKRSLFGYARTGLTLKR,< -0.25
21,GGRVRES,-0.245
22,ETDTARPKCQNEMRTSIGAD,< -0.25
23,TSA,< -0.25

row,Substance,growth estimate
1,RRRGINAESPRAFSQ,< -0.25
2,TGTDYLQSGRPPGMRTFRLR,0.0112
3,TWTYLILDCPYVLFQYYRVK,< -0.25
4,RGSNQIALIFSHQGANHTRY,< -0.25
5,GTSTGSWKGASGALSSLSLW,< -0.25
6,GYVLCTER,< -0.25
7,VRGQHRMVGCSVNCVLVLNC,< -0.25
8,AIGSADGPRGLSV,< -0.25
9,PASESNGEARRG,< -0.25
10,FVRLLKRIYEAGGRRGKRGS,< -0.25
11,SNL,< -0.25
12,ARSFGLLSWDPTASPCHVTG,< -0.25
13,DREYSASASRTSMTPAATDH,< -0.25
14,VGICFLQNGPGTLVKNRAAA,< -0.25
15,YVRC,< -0.25
16,FGSYMAIGDCALRAEERVPT,< -0.25
17,LGFDPDPGRTISARQSLDPP,< -0.25
18,LYVGNFAGVASSKVIGYARL,< -0.25
19,RQVI,< -0.25
20,ITIRVSLCRWL,< -0.25
21,RLALPVTLTI,< -0.25
22,ADKTSHVAVTLAFCSHPCVV,< -0.25
23,VQNRKRHL,< -0.25

row,Substance,growth estimate
1,LAEMKESRFGISSCTW,< -0.25
2,GWLSGRMPKHMKGKVGVRRQ,-0.152
3,DFFWI,< -0.25
4,SGFPSETSRPVDLYVAPQRP,< -0.25
5,TQLELDAYWRTSIASP,< -0.25
6,FGIARSTLIRLRL,< -0.25
7,AHIPCSPGSVPRIAPVTSAW,< -0.25
8,EGL,< -0.25
9,CENHDT,< -0.25
10,QYMSKLVDFSNFRIQNSTSA,< -0.25
11,ISHFPCQ,< -0.25
12,QRSKDRPGQPTTSSVALTFP,< -0.25
13,RYVLLREQT,< -0.25
14,NNNAVRVLPILRAPDVHLRG,< -0.25
15,VYK,< -0.25
16,LRSDGWMFSPSWCLSSSSVG,< -0.25
17,YDRETLGRKCPGS,< -0.25
18,RGYRGKSRG,< -0.25
19,ADKILNPRAQRNPIAEA,< -0.25
20,SPG,< -0.25
21,AGVNQSGTN,< -0.25
22,WNAEIWLRRRGLIGDGTV,< -0.25
23,CTLTSGFWNLRLWTDDEGFS,< -0.25

row,Substance,growth estimate
1,NDLVRSPRRAGQCWRRALAT,< -0.25
2,DGGVAADAYMTRADV,< -0.25
3,PRLDRCNDTVLGLHTTVSGR,< -0.25
4,IEAFKMGRRGCCAFIPKSFA,< -0.25
5,SAGSRRAVARINPALDVGGV,< -0.25
6,IHRENTPSAIVIGGSGPETA,< -0.25
7,YIAEYICITGPRSEPRLRRS,< -0.25
8,LLIEVRFR,< -0.25
9,IGPGLDRPNAPGI,< -0.25
10,CPVS,< -0.25
11,RLRLTSFDHRAAIW,< -0.25
12,RTYTVGGFHHDPPWIQMVGV,< -0.25
13,RGECGSIRCVQPYMAIPWVG,< -0.25
14,SQWSGHGRKSVLVPALLPSE,< -0.25
15,IGSESWDACRCASL,< -0.25
16,DSGGTLLFNNLFCYIVERRN,< -0.25
17,KCSLDQPVHENR,< -0.25
18,AWPCQRV,< -0.25
19,QVRCQDNN,< -0.25

# Shown bar-delimited: entries from further up
row | Substance | growth estimate
1 | NDLVRSPRRAGQCWRRALAT | < -0.25
2 | DGGVAADAYMTRADV | < -0.25
5 | SAGSRRAVARINPALDVGGV | < -0.25
7 | YIAEYICITGPRSEPRLRRS | < -0.25
10 | CPVS | < -0.25
